Results are given in words; binding and its absence hold for the method and conditions named. Some binding calls cover weakened binding; strength is not graded here.
What was measured:
GDF11 = biological target: T1, GDF11 (UniProt O95390); assay: SPR (retold in Example 3; the ligands are those of the 58th table)
T1 sequence (looked up): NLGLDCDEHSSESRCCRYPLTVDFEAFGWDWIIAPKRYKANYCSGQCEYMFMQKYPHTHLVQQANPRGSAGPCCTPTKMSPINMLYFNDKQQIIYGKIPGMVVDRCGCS

Chains of the proteins cited; added tags and fusions are not shown. Lines headed by an entry give the natural chain unless they say otherwise; changes in a name come on top. Residues count along the entry.
UniProt P22004, residues 382-513: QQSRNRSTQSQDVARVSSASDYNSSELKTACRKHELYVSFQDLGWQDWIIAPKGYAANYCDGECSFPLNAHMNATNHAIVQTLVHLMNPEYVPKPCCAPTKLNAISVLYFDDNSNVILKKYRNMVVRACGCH
UniProt P36896: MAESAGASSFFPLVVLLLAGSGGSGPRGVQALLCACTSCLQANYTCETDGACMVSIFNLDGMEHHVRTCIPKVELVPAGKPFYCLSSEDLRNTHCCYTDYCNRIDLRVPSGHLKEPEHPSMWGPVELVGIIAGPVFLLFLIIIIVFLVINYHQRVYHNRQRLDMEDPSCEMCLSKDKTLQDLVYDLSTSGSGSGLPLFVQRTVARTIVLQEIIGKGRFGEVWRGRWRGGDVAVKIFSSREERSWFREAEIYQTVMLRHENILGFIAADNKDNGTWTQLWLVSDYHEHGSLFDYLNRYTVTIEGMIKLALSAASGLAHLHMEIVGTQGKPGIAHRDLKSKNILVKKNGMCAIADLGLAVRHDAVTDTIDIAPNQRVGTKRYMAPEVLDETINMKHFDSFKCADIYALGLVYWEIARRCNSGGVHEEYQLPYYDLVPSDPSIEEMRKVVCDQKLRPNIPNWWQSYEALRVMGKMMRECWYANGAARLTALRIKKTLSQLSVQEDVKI

BMP6 [1] = biological target: BMP6 (UniProt P22004); assay: Biacore SPR
GDF3 [2] = biological target: T2, GDF3 (UniProt Q9NR23); assay: Biacore SPR
T2 sequence (looked up): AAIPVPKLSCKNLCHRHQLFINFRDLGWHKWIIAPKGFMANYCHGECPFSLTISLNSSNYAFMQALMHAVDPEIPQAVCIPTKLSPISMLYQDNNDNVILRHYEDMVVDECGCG

BMP6 [3] = biological target: BMP6 (UniProt P22004); assay: Biacore SPR (legend of FIG. 4)
GDF3 [4] = biological target: T2, GDF3; assay: Biacore SPR (legend of FIG. 4)

Substance	binding (GDF11)	binding (BMP6 [1])	binding (GDF3 [2])	binding (BMP6 [3])	binding (GDF3 [4])
ALK4-Fc homodimer (from UniProt P36896 24-126) (Fc fusion)	binds	–	–	–	–
ALK4-Fc:ActRIIB-Fc heterodimer (from UniProt P36896 24-126; Q13705 20-134) (Fc fusion)	–	binds	binds	binds	binds

Source: patent US20250084388A1
